PubChem BioAssay AID1259405, NCATS, 2018
In all, the deposit lists about 50,000 reagents; below is a random part of them. About 4,000 of all reagents (8%) were called active. 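Mouse siRNA library applied to hamster cells; one well for each siRNA.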 Reagents against one gene are numbered here.

Screen: 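Silenced genes that increase secreted GFP made by CHO cells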 (primary screen)
Cells: Chinese hamster CHO-K1 ovary cells with stable secreted eGFP expression
Reagent: single siRNA against mouse genes, 0.8 pmol siRNA per well (2 µl of 400 nM stock)
Time to read-out: 3 days
Detection: 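Percent of the per-plate non-targeting control median for intracellular GFP per well by laser scanning cytometry and for cell viability by ATP luminescence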
Direction: GFP, % of control: higher = more GFP per well, higher productivity; viability (ATP), % of control: higher = more viable cells (more ATP)
Active means: 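Called active when intracellular GFP, relative to negative control, is at or above 120%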

{"gene knocked down": "Pttg1ip (GeneID 108705)", "reagent no.": 1, "GFP, % of control": 84, "viability (ATP), % of control": 105, "outcome": "inactive"}
{"gene knocked down": "Pttg1ip (GeneID 108705)", "reagent no.": 2, "GFP, % of control": 89.4, "viability (ATP), % of control": 54.7, "outcome": "inactive"}
{"gene knocked down": "Pttg1ip (GeneID 108705)", "reagent no.": 3, "GFP, % of control": 57.1, "viability (ATP), % of control": 58.1, "outcome": "inactive"}
{"gene knocked down": "Rnps1 (GeneID 19826)", "reagent no.": 1, "GFP, % of control": 81.4, "viability (ATP), % of control": 88.6, "outcome": "inactive"}
{"gene knocked down": "Rnps1 (GeneID 19826)", "reagent no.": 2, "GFP, % of control": 91.5, "viability (ATP), % of control": 85.3, "outcome": "inactive"}
{"gene knocked down": "Rnps1 (GeneID 19826)", "reagent no.": 3, "GFP, % of control": 47.3, "viability (ATP), % of control": 45.8, "outcome": "inactive"}

A run of entries from the list above:
{"gene knocked down": "Pttg1ip (GeneID 108705)", "reagent no.": 2, "GFP, % of control": 89.4, "viability (ATP), % of control": 54.7, "outcome": "inactive"}
{"gene knocked down": "Pttg1ip (GeneID 108705)", "reagent no.": 3, "GFP, % of control": 57.1, "viability (ATP), % of control": 58.1, "outcome": "inactive"}

More results:
{"gene knocked down": "Sec24a (GeneID 77371)", "reagent no.": 1, "GFP, % of control": 43.3, "viability (ATP), % of control": 63.8, "outcome": "inactive"}
{"gene knocked down": "Sec24a (GeneID 77371)", "reagent no.": 2, "GFP, % of control": 41.9, "viability (ATP), % of control": 45.1, "outcome": "inactive"}
{"gene knocked down": "Sec24a (GeneID 77371)", "reagent no.": 3, "GFP, % of control": 56.2, "viability (ATP), % of control": 70.7, "outcome": "inactive"}
{"gene knocked down": "Slc35f6 (GeneID 74919)", "reagent no.": 1, "GFP, % of control": 103, "viability (ATP), % of control": 100, "outcome": "inactive"}
{"gene knocked down": "Slc35f6 (GeneID 74919)", "reagent no.": 2, "GFP, % of control": 49.2, "viability (ATP), % of control": 33.8, "outcome": "inactive"}
{"gene knocked down": "Slc35f6 (GeneID 74919)", "reagent no.": 3, "GFP, % of control": 96.4, "viability (ATP), % of control": 94.5, "outcome": "inactive"}
{"gene knocked down": "Sgms1 (GeneID 208449)", "reagent no.": 1, "GFP, % of control": 79.6, "viability (ATP), % of control": 93.4, "outcome": "inactive"}
{"gene knocked down": "Sgms1 (GeneID 208449)", "reagent no.": 2, "GFP, % of control": 30.8, "viability (ATP), % of control": 37.6, "outcome": "inactive"}
{"gene knocked down": "Mrpl39 (GeneID 27393)", "reagent no.": 1, "GFP, % of control": 95.4, "viability (ATP), % of control": 109, "outcome": "inactive"}
{"gene knocked down": "Mrpl39 (GeneID 27393)", "reagent no.": 2, "GFP, % of control": 74.5, "viability (ATP), % of control": 71.7, "outcome": "inactive"}
{"gene knocked down": "Mrpl39 (GeneID 27393)", "reagent no.": 3, "GFP, % of control": 105, "viability (ATP), % of control": 94.8, "outcome": "inactive"}
